No constants are given. Whether binding was seen depends on the method and setting. Some entries that bind do so weakly or less than the wild type.
Columns and labels:
[1] = target: Human Jag1-DSL-EGF1-4 (human) (UniProt P78504); experiment: SPR (BIAcore-3000)
[2] = target: Human Jag1-DSL-EGF1-4 (human) (UniProt P78504); experiment: ELISA (screening, FIG. 8)
[3] = target: Human Jag1-DSL-EGF1-4 (human) (UniProt P78504); experiment: ELISA on human Jagged1 (Jag-1 bars), OD450 nm
[4] = target: T1, Human Jag2-DSL-EGF1-4 (human, UniProt Q9Y219 24-388); experiment: ELISA (screening, FIG. 8)
T1 construct: also called human Jagged2; hJag2
T1 sequence: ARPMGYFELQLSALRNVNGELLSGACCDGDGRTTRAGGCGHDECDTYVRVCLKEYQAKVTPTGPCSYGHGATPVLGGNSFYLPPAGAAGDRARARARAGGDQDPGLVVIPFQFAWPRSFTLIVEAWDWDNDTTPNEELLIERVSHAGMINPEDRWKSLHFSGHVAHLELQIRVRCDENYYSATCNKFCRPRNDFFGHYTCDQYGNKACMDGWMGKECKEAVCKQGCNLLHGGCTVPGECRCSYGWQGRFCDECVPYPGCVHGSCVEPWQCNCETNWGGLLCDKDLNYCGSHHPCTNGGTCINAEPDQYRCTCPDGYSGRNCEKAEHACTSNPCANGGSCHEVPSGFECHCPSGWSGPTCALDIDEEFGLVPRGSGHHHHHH

Protein sequences, listed by entry. Tags and fused reporters are not part of them. Lines headed by an entry give the natural chain unless they say otherwise; changes in a name come on top.
UniProt P78504: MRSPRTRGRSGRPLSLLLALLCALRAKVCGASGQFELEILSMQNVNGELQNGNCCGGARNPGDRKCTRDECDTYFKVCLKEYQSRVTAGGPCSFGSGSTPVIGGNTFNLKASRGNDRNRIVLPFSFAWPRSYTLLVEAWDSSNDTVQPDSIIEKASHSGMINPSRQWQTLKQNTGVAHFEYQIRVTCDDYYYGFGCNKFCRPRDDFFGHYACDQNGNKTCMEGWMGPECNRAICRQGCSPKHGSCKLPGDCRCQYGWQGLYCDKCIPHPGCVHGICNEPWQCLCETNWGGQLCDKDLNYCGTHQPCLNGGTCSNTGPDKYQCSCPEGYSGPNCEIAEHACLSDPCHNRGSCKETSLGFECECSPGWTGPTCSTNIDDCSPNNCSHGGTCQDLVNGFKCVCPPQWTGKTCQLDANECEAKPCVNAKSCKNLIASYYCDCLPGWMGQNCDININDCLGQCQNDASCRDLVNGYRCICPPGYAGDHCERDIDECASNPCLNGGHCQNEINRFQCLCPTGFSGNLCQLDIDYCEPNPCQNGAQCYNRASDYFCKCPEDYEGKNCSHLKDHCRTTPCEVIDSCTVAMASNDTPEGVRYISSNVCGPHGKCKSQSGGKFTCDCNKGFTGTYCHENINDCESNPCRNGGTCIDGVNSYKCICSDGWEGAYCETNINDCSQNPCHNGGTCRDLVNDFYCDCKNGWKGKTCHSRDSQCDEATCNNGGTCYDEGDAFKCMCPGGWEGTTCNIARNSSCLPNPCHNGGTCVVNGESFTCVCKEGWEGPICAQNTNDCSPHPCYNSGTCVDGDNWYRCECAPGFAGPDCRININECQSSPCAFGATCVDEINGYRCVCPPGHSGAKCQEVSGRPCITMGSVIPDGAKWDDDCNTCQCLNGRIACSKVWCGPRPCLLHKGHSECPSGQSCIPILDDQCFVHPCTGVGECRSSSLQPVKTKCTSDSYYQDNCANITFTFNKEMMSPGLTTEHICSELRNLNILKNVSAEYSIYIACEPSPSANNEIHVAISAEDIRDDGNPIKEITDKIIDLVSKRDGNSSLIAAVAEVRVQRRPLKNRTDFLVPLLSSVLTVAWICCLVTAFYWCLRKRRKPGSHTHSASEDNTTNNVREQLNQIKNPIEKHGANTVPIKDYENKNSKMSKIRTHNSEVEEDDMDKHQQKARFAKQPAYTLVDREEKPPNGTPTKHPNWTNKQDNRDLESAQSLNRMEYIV

[5] = target: T2, Murine Jag2-DSL-EGF1-4 (mouse, UniProt Q9QYE5 27-388); experiment: ELISA (screening, FIG. 8)
T2 construct: also called murine Jagged2; Mouse Jag2
T2 sequence: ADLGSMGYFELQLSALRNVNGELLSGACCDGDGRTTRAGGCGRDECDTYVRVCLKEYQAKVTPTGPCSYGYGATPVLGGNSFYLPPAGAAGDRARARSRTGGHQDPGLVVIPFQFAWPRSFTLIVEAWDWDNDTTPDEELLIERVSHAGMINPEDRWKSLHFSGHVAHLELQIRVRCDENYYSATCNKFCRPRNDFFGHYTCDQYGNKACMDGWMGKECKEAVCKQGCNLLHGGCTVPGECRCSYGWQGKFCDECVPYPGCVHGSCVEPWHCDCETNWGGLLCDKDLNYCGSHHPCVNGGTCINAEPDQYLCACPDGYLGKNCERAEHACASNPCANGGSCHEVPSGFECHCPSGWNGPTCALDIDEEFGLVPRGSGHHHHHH

[6] = target: T1, Human Jag2-DSL-EGF1-4; experiment: ELISA on human Jagged2 (Jag-2 bars), OD450 nm
[7] = target: T3, human Delta-like 1 (DSL-EGF1-4 fragment) (human, UniProt O00548 18-368, limits assumed); experiment: SPR (BIAcore T200)
T3 construct: domain: DSL-EGF1-4; Recombinant purified Notch ligand; also called human DLL1; hDLL1
T3 sequence (looked up): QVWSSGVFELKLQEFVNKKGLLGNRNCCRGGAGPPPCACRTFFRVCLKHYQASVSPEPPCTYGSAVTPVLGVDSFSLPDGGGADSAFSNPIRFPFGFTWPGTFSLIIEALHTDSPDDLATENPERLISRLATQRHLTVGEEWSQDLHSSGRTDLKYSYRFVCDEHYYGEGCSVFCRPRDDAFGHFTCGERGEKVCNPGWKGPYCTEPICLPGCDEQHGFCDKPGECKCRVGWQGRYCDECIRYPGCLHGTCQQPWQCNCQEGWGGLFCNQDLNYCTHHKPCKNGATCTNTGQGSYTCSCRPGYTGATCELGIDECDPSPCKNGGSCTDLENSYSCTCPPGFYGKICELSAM

[8] = target: murine Delta-like 1 (DSL-EGF1-4 fragment) (mouse) (UniProt Q61483); experiment: SPR (BIAcore T200)
[9] = target: Human Jag1-DSL-EGF1-4 (human) (UniProt P78504); experiment: SPR (BIAcore T200)
[10] = target: Human Jag1-DSL-EGF1-4 (human) (UniProt P78504); experiment: ELISA, ligand coated at 1 µg/ml, IgG titrated
[11] = target: Human Jag1-DSL-EGF1-4 (human) (UniProt P78504); experiment: ELISA, Notch ligand coated at 1 ug/ml, serial 3-fold dilutions of IgG, anti-human Fab-peroxidase, A630 [left panel, A-2]

Measured: binding

B1: Antibody A (antibody, human IgG1, V domains shown)
VH: EVQLVESGGGLVQPGGSLRLSCAASGFTFSNYGIHWVRQAPGKGLEWVGWITPDGGYTDYADSVKGRFTISADTSKNTAYLQMNSLRAEDTAVYYCARAGSWFAYWGQGTLVTVSS
VL: DIQMTQSPSSLSASVGDRVTITCRASQDVSTAVAWYQQKPGKAPKLLIYSASFLYSGVPSRFSGSGSGTDFTLTISSLQPEDFATYYCQQSYTTPPTFGQGTKVEIK
notes: Only the variable domains are tied to the tested antibody; also called parent antibody A; anti-Jagged1 antibody A
binds: [1] | [2] | [3]

B2: Antibody B (antibody, V domains shown)
VH: EVQLVESGGGLVQPGGSLRLSCAASGFTFTSYDIHWVRQAPGKGLEWVGGISPADGDTDYANSVKGRFTISADTSKNTAYLQMNSLRAEDTAVYYCARNDYDVRSVGSGMDYWGQGTLVTVSS
VL: DIQMTQSPSSLSASVGDRVTITCRASQDVSTAVAWYQQKPGKAPKLLIYSASFLYSGVPSRFSGSGSGTDFTLTISSLQPEDFATYYCQQSYTTPPTFGQGTKVEIK
notes: Anti-Jagged2 antibody, human IgG1; also called parental antibody of antibody B-3
binds: [4] | [5] | [6]

B3: Antibody B-3 (antibody, human IgG1, V domains shown)
VH: EVQLVESGGGLVQPGGSLRLSCAASGFTFTSYDIHWVRQAPGKGLEWVGGISPADGDTDYANSVKGRFTISADTSKNTAYLQMNSLRAEDTAVYYCARNDYDVRFVGSGMDYWGQGTLVTVSS
VL: DIQMTQSPSSLSASVGDRVTITCRASQDVSTAVAWYQQKPGKAPKLLIYSASFLYSGVPSRFSGSGSGTDFTLTISSLQPEDFATYYCQQSFTAPPTFGQGTKVEIK
notes: also called anti-Jagged2 antibody B-3; anti-Jag2 B-3
binds: [7] | [8]

B4: Antibody A-2 (antibody, human IgG1, V domains shown)
VH: EVQLVESGGGLVQPGGSLRLSCAASGFTFSNYGIHWVRQAPGKGLEWVGWITGNGGYSDYADSVKGRFTISADTSKNTAYLQMNSLRAEDTAVYYCARAGSWFAYWGQGTLVTVSS
VL: DIQMTQSPSSLSASVGDRVTITCRASQDVSTAVAWYQQKPGKAPKLLIYSASFLYSGVPSRFSGSGSGTDFTLTISSLQPEDFATYYCQQSYTTPPTFGQGTKVEIK
notes: also called anti-Jagged1 antibody A-2
binds: [1] | [9] | [10] | [11]

— patent US20150252117A1 (Genentech, published 2015)
